No constants are given. Whether binding was seen depends on the method and setting. In cells and extracts the contact can be indirect. Some binding calls cover weakened binding; strength is not graded here.

The chains behind the UniProt entries cited, without tags or fusion partners. Where a name states a change or a piece, a line headed by the entry shows the natural chain unless it says otherwise. A line that says so, or that is headed by a name, gives the form on record, which may keep a tag or linker.
UniProt Q00987: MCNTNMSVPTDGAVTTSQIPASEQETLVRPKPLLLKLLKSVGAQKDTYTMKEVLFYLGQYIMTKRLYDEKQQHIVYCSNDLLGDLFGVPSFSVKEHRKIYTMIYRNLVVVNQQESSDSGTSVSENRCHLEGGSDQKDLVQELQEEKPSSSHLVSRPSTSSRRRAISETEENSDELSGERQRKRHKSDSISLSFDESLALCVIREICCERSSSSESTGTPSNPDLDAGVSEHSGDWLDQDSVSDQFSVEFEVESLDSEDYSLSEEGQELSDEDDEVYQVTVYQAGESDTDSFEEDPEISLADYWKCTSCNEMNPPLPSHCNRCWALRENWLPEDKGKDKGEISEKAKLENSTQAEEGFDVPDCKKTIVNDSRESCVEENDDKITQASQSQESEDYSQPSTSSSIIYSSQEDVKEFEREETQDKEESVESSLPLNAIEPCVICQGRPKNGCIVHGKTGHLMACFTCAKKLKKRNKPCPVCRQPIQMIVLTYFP
UniProt Q13315: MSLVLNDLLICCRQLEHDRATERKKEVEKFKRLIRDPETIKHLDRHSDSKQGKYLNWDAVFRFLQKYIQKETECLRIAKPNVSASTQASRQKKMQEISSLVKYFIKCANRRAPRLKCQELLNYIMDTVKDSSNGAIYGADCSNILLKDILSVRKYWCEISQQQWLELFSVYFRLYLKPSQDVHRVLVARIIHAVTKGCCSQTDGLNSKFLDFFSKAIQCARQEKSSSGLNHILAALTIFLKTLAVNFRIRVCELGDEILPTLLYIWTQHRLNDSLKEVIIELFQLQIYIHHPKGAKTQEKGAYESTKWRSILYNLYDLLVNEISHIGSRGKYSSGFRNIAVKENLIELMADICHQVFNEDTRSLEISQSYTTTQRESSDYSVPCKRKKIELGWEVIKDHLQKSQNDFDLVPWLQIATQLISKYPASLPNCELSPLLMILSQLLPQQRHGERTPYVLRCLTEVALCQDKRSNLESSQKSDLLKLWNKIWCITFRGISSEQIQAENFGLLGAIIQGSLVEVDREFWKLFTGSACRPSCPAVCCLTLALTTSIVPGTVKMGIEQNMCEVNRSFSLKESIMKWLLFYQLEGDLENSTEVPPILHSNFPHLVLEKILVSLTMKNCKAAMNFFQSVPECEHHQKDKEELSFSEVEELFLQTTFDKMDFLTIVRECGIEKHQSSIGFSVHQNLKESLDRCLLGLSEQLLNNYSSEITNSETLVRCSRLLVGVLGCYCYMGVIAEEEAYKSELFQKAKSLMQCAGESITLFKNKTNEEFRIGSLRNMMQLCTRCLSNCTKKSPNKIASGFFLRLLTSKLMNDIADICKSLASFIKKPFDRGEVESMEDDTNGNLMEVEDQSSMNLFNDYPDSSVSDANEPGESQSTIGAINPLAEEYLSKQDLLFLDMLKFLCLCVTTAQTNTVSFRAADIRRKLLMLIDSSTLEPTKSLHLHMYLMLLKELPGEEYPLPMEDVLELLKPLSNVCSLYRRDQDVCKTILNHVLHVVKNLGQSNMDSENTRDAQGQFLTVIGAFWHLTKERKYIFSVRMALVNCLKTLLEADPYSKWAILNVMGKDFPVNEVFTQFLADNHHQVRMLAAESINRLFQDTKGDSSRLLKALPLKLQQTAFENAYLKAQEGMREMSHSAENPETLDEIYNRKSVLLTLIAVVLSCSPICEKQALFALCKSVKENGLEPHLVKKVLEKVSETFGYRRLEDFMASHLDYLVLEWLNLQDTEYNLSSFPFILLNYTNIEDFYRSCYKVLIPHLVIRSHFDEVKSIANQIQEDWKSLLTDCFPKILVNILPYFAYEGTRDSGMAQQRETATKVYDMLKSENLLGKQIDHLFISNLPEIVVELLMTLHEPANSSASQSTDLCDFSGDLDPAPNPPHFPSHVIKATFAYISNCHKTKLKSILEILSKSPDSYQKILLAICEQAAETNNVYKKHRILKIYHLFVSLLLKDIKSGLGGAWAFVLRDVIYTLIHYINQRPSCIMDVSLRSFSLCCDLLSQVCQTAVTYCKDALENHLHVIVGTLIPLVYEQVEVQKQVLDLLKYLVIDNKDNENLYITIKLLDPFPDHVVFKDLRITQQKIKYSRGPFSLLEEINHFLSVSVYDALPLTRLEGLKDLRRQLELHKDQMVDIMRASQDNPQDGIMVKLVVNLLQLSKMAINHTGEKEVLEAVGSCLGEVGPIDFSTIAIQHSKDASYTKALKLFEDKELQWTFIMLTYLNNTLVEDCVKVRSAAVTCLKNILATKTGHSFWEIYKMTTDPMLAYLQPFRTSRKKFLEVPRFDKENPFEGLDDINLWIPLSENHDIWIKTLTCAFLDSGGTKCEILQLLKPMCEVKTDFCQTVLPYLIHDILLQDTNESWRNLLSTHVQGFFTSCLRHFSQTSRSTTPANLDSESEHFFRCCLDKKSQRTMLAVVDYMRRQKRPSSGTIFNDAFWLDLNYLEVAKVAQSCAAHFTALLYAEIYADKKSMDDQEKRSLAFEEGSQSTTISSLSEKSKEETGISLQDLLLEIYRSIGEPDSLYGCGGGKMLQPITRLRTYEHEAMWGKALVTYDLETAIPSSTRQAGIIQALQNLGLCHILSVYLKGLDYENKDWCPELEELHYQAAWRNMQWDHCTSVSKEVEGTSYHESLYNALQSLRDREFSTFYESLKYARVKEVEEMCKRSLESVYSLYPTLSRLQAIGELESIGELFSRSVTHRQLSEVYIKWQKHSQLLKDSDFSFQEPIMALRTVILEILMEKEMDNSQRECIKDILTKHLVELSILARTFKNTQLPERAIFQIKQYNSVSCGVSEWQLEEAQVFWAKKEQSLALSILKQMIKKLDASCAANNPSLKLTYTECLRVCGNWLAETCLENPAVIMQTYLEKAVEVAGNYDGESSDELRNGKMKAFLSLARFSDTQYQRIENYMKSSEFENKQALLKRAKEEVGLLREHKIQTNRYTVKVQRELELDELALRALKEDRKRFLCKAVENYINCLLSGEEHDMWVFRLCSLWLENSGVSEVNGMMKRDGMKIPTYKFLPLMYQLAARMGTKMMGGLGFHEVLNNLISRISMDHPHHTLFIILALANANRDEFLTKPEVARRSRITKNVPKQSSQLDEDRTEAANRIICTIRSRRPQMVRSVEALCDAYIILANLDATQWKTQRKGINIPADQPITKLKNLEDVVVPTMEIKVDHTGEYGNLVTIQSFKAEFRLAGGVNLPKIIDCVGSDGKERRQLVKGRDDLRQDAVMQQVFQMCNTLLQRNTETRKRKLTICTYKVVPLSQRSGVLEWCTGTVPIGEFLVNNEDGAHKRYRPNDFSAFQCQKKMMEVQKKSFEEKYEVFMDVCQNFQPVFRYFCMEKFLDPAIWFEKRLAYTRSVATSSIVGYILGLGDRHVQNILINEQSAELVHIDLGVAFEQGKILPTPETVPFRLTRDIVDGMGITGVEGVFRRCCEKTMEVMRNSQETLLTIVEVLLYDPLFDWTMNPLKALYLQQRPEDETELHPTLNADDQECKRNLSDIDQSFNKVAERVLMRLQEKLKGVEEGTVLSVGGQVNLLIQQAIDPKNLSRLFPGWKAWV
ATM(1–2667) with the S1981A mutation (Q13315, form named): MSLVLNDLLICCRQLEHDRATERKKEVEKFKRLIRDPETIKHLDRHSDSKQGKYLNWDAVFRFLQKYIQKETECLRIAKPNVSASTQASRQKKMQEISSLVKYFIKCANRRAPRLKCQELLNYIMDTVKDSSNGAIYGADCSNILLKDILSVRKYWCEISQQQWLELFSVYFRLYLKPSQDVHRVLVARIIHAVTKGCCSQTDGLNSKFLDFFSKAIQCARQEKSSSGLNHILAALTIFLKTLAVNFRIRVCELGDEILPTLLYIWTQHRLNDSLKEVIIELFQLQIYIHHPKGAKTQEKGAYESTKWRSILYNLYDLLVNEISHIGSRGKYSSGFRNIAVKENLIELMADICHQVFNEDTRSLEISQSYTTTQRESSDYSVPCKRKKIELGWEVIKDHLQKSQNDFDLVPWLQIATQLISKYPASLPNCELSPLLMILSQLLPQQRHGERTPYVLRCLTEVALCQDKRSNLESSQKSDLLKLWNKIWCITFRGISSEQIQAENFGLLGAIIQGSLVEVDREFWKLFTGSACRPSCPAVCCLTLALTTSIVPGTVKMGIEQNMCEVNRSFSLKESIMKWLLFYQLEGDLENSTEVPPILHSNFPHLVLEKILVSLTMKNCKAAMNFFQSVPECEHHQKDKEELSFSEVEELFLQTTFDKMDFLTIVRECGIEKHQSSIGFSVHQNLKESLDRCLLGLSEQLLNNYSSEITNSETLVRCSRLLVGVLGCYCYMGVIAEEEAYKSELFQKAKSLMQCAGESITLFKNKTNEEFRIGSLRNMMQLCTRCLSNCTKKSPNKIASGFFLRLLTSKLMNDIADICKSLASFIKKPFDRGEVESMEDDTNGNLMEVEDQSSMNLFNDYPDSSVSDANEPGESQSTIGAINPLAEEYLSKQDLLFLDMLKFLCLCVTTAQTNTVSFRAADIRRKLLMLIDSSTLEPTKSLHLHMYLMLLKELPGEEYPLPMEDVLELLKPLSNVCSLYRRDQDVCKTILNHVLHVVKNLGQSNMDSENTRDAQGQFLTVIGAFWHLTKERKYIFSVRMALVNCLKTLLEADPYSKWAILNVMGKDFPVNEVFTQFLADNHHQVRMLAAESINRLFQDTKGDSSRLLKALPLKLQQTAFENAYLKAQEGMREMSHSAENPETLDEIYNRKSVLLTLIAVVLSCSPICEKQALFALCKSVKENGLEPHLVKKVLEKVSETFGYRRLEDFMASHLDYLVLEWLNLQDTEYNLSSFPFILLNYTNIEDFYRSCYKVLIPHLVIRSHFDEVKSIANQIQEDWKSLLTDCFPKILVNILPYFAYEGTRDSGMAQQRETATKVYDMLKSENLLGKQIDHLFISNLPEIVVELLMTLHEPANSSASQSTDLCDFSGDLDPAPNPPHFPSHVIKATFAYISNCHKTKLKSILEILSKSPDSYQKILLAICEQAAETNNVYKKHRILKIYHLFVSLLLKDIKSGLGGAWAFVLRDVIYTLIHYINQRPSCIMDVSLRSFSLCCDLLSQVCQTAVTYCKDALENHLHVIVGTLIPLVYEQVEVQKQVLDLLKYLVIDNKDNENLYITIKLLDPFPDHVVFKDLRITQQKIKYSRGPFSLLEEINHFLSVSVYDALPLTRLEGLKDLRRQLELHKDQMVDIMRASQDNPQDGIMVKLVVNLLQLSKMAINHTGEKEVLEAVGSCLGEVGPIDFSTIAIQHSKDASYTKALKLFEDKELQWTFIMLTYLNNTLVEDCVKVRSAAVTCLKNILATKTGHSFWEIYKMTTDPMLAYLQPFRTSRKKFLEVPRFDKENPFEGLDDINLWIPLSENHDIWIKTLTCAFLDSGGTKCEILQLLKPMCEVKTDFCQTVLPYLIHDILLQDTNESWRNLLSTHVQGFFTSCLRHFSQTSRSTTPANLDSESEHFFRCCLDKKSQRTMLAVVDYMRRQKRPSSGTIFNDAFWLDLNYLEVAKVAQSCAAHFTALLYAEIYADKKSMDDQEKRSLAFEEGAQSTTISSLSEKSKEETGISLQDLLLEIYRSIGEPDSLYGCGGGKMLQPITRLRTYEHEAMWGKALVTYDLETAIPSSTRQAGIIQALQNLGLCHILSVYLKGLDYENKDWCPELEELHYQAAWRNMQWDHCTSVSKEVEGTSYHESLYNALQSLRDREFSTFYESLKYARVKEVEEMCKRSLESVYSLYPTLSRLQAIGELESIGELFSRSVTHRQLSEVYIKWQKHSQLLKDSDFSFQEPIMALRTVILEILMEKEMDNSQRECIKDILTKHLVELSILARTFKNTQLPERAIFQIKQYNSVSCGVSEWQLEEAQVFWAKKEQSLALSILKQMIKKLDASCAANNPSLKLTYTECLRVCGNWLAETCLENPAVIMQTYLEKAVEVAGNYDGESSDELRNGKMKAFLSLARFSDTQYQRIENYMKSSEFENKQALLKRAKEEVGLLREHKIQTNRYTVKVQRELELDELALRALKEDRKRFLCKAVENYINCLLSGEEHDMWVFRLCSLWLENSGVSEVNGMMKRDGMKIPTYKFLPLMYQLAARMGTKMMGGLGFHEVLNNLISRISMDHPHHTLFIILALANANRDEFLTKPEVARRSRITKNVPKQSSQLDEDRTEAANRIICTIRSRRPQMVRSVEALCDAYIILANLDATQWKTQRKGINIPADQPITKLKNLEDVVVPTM

The target in this experiment is MDM2 in AT5 BiVA cells (UniProt Q00987). Put plainly: proximity ligation; PLA on fixed AT5 BiVA cells (ATM-null) transfected with ATM constructs, ATM with MDM2; normal conditions (DMSO) or doxorubicin; PLA dots counted per cell.
On to “ATM(1–2057) (from UniProt Q13315 1-2057) (domain or fragment)”, for which the binding entry is listed as “no binding”.

As for “ATM(1–2667) (from UniProt Q13315 1-2667) (domain or fragment)”, the binding entry was “no binding”.

As to “ATM(1–2667) with the S1981A mutation (from UniProt Q13315 1-2667) (domain or fragment)”, the binding result is “no binding”.

In the case of “ATM(1–2667) with the phosphomimetic S1981D mutation (from UniProt Q13315 1-2667) (domain or fragment)”, the binding entry was “binds”.

The values are drawn from publication PMC10804554.
